Assay results published in the supplement of paper PMC3334620.
In all, about 33,000 sequences were measured (“E-score (-0.5 to 0.5)”: median about -0.016, highest 2% from about 0.3 on). Some of the results follow.

Target: T1, Yer184c (UniProt P39961)
T1 sequence: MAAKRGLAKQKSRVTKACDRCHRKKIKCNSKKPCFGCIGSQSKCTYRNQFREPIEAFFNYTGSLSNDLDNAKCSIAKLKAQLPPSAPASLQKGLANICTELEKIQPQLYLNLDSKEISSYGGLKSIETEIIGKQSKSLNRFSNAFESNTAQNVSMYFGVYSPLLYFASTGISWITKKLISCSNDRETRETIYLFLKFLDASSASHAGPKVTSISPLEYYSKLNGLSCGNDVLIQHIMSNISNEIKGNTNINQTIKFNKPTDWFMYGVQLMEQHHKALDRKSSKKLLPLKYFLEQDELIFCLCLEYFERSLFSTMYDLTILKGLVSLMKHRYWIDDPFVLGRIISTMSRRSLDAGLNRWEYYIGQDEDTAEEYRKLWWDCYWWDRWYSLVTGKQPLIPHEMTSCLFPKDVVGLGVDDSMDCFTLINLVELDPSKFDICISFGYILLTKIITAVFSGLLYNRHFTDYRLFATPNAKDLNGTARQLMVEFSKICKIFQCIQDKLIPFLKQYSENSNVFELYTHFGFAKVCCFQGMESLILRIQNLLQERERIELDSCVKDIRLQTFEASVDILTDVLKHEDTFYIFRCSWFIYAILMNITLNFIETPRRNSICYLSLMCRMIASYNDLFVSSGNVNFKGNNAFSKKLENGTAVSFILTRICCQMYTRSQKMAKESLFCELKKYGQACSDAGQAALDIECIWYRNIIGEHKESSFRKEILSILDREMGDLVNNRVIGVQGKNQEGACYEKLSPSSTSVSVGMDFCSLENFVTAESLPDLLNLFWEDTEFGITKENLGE
Experiment: PBM E-score (8-mer binding enrichment) (E-score (-0.5 to 0.5)); higher = stronger / more preferred TF binding
Details: protein concentration: 100 nM; construct: GST-full length
Summary of the method: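 Masliner-normalised scans of fluorescent anti-GST signal were the basis for scoring. That signal came from GST-tagged yeast transcription factors applied at about 100-200 nM to double-stranded universal all-10-mer Agilent arrays on fresh or once-stripped slides. Each ungapped eight-base word, pooled with its reverse complement, received an E-score from the Universal PBM Analysis Suite.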

First: AAAAACAG
Second: AACGGAAC
The “PBM E-score” value of the first is lower: 0.115 for the first, 0.333 for the second.

Going from TCGACCCA to ATGCATGC, the “PBM E-score” value rises from -0.126 to -0.0272.

Compared with AGCAATAA, GACTTGCA is higher in “PBM E-score” value: 0.00255 for the first, 0.0922 for the second.

Compared with AGATCGCT, ATTCAAAT is higher in “PBM E-score” value: -0.0328 for the first, 0.171 for the second.

Compared with CTCGCTAA, GAACGCGC is higher in “PBM E-score” value: -0.0577 for the first, 0.163 for the second.

Going from GCGACGAC to AGAGTGGA, the “PBM E-score” value rises from -0.249 to -0.184.

First: CCATAGAG
Second: GCCGTTCA
The “PBM E-score” value of the first is lower: -0.11 for the first, 0.0622 for the second.

Going from GAGACCTA to ACCACAAT, the “PBM E-score” value rises from -0.186 to -0.17.

Going from AATTCATG to GCGGATCC, the “PBM E-score” value falls from 0.216 to 0.161.

Compared with CCACAAGG, CCACTAGC is lower in “PBM E-score” value: -0.183 for the first, -0.285 for the second.

Going from CAATGCCC to CACCGATC, the “PBM E-score” value rises from -0.177 to 0.0488.

First: AGGTGAAA
Second: ACTCACAA
The “PBM E-score” value of the first is higher: 0.0594 for the first, 0.0218 for the second.

First: CAGCAATG
Second: AGACGGTG
The “PBM E-score” value of the first is lower: -0.296 for the first, -0.238 for the second.

Going from CAAGACAG to ACGAGTTC, the “PBM E-score” value rises from -0.0215 to -0.0111.

First: CTACCTTC
Second: ACACAGAT
The “PBM E-score” value of the first is higher: 0.0363 for the first, -2e-05 for the second.

First: CCCAGCGA
Second: GGCCAACA
The “PBM E-score” value of the first is lower: -0.236 for the first, -0.0401 for the second.

Compared with GCCGCCGC, ATGCCGAC is higher in “PBM E-score” value: 0.0787 for the first, 0.243 for the second.

Going from ACCTCTCA to ATGGGGAC, the “PBM E-score” value falls from -0.217 to -0.22.

First: CTACTAAC
Second: AACGCCAC
The “PBM E-score” value of the first is higher: 0.0895 for the first, -0.023 for the second.

Compared with CATGATTA, CAAAGACG is lower in “PBM E-score” value: 0.218 for the first, -0.0328 for the second.

First: ACTACCCG
Second: AAAGCAGC
The “PBM E-score” value of the first is lower: 0.0408 for the first, 0.101 for the second.

Compared with CTCATCGA, ATGAACAG is higher in “PBM E-score” value: -0.0305 for the first, 0.17 for the second.

First: CAGGCGTC
Second: ACTGACAG
The “PBM E-score” value of the first is lower: -0.185 for the first, 0.039 for the second.

First: AGGCTGAC
Second: CCATAATC
The “PBM E-score” value of the first is lower: -0.164 for the first, -0.0871 for the second.

Compared with ATGCCGTG, AAGCTAGC is lower in “PBM E-score” value: 0.115 for the first, -0.0261 for the second.

Compared with ACGAGAGT, CAATCGAC is lower in “PBM E-score” value: -0.115 for the first, -0.149 for the second.

First: AGCTTAGC
Second: AAAGCTGA
The “PBM E-score” value of the first is lower: -0.0666 for the first, 0.0558 for the second.

Going from GTTATTTA to AGGTTTCC, the “PBM E-score” value falls from 0.16 to -0.0643.

Going from AGAGGAAC to CTCCTCCA, the “PBM E-score” value falls from 0.0137 to -0.0993.

Compared with ATGAATAG, AGCGTTAG is lower in “PBM E-score” value: -0.0174 for the first, -0.214 for the second.

First: CCCTTAGG
Second: GTGAAAAA
The “PBM E-score” value of the first is lower: -0.19 for the first, 0.232 for the second.

Compared with AGATCTAA, AGAGTGCG is lower in “PBM E-score” value: 0.0189 for the first, -0.0685 for the second.

Going from GCCCGTAA to CAGAGAAG, the “PBM E-score” value rises from -0.00023 to 0.0382.

Compared with GGAATAGA, GAAGTTGA is lower in “PBM E-score” value: 0.135 for the first, 0.0512 for the second.

Going from AAGGGTAT to CGACCGAA, the “PBM E-score” value rises from -0.157 to 0.273.

Compared with AGAGTAAT, TCATTGCA is lower in “PBM E-score” value: 0.234 for the first, 0.0521 for the second.

Going from TCTCAACA to GAACTCGC, the “PBM E-score” value rises from 0.104 to 0.118.

Compared with CCCGCGCC, AATTAGCG is lower in “PBM E-score” value: 0.00518 for the first, -0.00252 for the second.

Compared with AGAACGTA, AGTAGCCG is higher in “PBM E-score” value: -0.129 for the first, 0.198 for the second.

Going from ACTTCCAG to CGCCCAAC, the “PBM E-score” value falls from -0.112 to -0.12.

First: CAATGCGA
Second: ACCGCTGG
The “PBM E-score” value of the first is higher: -0.0882 for the first, -0.135 for the second.

Compared with AGGGACAG, CCACCCCG is higher in “PBM E-score” value: -0.363 for the first, -0.116 for the second.

Compared with CCTCAAAC, ACTCTTCT is lower in “PBM E-score” value: 0.0519 for the first, -0.0645 for the second.

First: GAAGAGGA
Second: CTAGCTCC
The “PBM E-score” value of the first is lower: -0.185 for the first, -0.123 for the second.

Going from AGGTCCGA to ATTCTAAG, the “PBM E-score” value falls from 0.197 to 0.0463.

First: AATGTCTC
Second: AACAATGA
The “PBM E-score” value of the first is lower: -0.06 for the first, 0.0995 for the second.

Going from CCCTCCCC to GAGATTGA, the “PBM E-score” value rises from -0.127 to -0.0286.

First: CATTCCCA
Second: ACCTGGAA
The “PBM E-score” value of the first is lower: -0.185 for the first, 0.0875 for the second.

Compared with ATGCCGCA, AGACGACA is lower in “PBM E-score” value: 0.124 for the first, -0.107 for the second.

Compared with ACCATAAG, ATATCTGA is higher in “PBM E-score” value: -0.177 for the first, 0.131 for the second.

Compared with TTACCTAA, GAATATTA is higher in “PBM E-score” value: 0.126 for the first, 0.146 for the second.

Going from GGGCGTAC to ACCATTTA, the “PBM E-score” value rises from -0.105 to 0.137.

Going from CTGCGGTA to CCAATGCG, the “PBM E-score” value falls from 0.0914 to -0.21.

Going from GTTGAAGA to CAGACGTA, the “PBM E-score” value falls from 0.0149 to 0.00462.

Compared with GACCAAGA, TTCACAAA is higher in “PBM E-score” value: 0.0101 for the first, 0.204 for the second.

Compared with CAGGGATA, AAACCGCC is higher in “PBM E-score” value: -0.0856 for the first, 0.147 for the second.

First: CCCAGCTA
Second: GCTCATCC
The “PBM E-score” value of the first is lower: -0.25 for the first, -0.14 for the second.

First: CGCACGTA
Second: ACGCCCCC
The “PBM E-score” value of the first is lower: -0.227 for the first, -0.165 for the second.

Going from AGTGCCTC to CGCGATAG, the “PBM E-score” value rises from -0.128 to -0.0308.

Going from AAACGCAC to GAGAACTC, the “PBM E-score” value falls from -0.0781 to -0.193.

First: AACAGCCC
Second: ATCGTACG
The “PBM E-score” value of the first is higher: 0.0219 for the first, -0.0735 for the second.

First: GATCTCAC
Second: CCGACTAA
The “PBM E-score” value of the first is lower: -0.021 for the first, 0.167 for the second.

First: ATCTATGC
Second: TCTCGTCA
The “PBM E-score” value of the first is lower: -0.138 for the first, 0.0951 for the second.

Compared with GACACTAA, AAGATCAA is higher in “PBM E-score” value: 0.0304 for the first, 0.0888 for the second.

Going from AATAGCCA to GTTGCAAA, the “PBM E-score” value rises from -0.0467 to 0.228.

Compared with AATTAATC, CTGCATGC is lower in “PBM E-score” value: 0.138 for the first, 0.0562 for the second.

First: AGGGTCTC
Second: CTCCGCGC
The “PBM E-score” value of the first is lower: -0.314 for the first, 0.112 for the second.

Compared with GAGGCAAC, TCCACCGA is higher in “PBM E-score” value: -0.152 for the first, 0.0324 for the second.

Going from CGCTGCTA to AAGGGATG, the “PBM E-score” value rises from -0.23 to -0.212.

Compared with GTTGGTAA, ACGTCCAA is lower in “PBM E-score” value: 0.0934 for the first, -0.0977 for the second.

Going from CGTGGAGA to GGCTTAAC, the “PBM E-score” value rises from -0.166 to -0.0348.

Compared with ACGATTCG, ATGAGCGG is lower in “PBM E-score” value: 0.0707 for the first, -0.0669 for the second.

Going from CCCAGGTA to CCCCTCGA, the “PBM E-score” value rises from -0.31 to -0.147.

Going from CAATGGGC to GCTTATAC, the “PBM E-score” value rises from -0.236 to -0.0191.

Compared with AGAGAGTA, TCTGGAAA is higher in “PBM E-score” value: -0.0738 for the first, 0.0756 for the second.

Going from ATCAGACG to ACTGCGGG, the “PBM E-score” value falls from 0.0852 to -0.00285.

Going from TGGAGCAA to AGAATAGC, the “PBM E-score” value falls from 0.0711 to -0.0261.

First: AGTCGTAC
Second: ATCCTCGG
The “PBM E-score” value of the first is lower: -0.159 for the first, 0.218 for the second.

Going from ACGAGGGG to GCGTTGAC, the “PBM E-score” value rises from -0.301 to -0.15.

Compared with CCCAATAA, TACTGCTA is higher in “PBM E-score” value: -0.131 for the first, -0.039 for the second.

First: ATCTGCTC
Second: AAACACAT
The “PBM E-score” value of the first is lower: -0.0905 for the first, 0.049 for the second.

Compared with AGGGCCCT, GCAGGTTA is higher in “PBM E-score” value: -0.383 for the first, -0.16 for the second.

Going from AAATGACT to AAACGCGC, the “PBM E-score” value falls from -0.0279 to -0.0626.

Going from CGTGTGCA to CACCCGTC, the “PBM E-score” value falls from -0.144 to -0.155.

First: CAAGTGGG
Second: CAACGGCC
The “PBM E-score” value of the first is lower: -0.0251 for the first, 0.0623 for the second.

First: ACTCACTG
Second: AAGTGTAA
The “PBM E-score” value of the first is higher: -0.0576 for the first, -0.244 for the second.
